The results are deposited in PubChem (AID1159506; NCATS, 2015).

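Luminescence from an EWS-FLI1 target-promoter (NR0B1) reporter, set against a CMV-promoter reporter, two days after silencing single genes in TC32 Ewing sarcoma cells.
Each siRNA was applied at 20 nM.
A z-score of the log NR0B1-over-CMV signal, less the median of siRNAs with the same seed; more negative means a stronger specific loss of the NR0B1 reporter.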

The strongest results of the screen are mostly left out here.
Sequences are the guide (antisense) strand, without overhang.

siRNA | target gene | seed-corrected z-score
UAAUCGCUGAACAAUUUCC | SIPA1L2 | -0.5367
UACCCUAACACGUGCCCUG | LOC729173 | 0.5416
UUUAACUUUAUUACUGUUG | BASP1 | 1.219
AGUGAUAUCACGAUGCCUU | SLC10A1 | 1.162
UUUCGUGGUACCUUGUUCC | DHX16 | 0.5497
UAUGCAUAGAGCUCAGUCC | RASSF10 | -0.6535
UAUCCUGAUUGUCAGUUGG | PAGE4 | 0.2443
AACUCUUCGGCAUUCUUUC | UBE2L6 | 1.031
UGAACUAUCUGAGUCAUGG | SLC39A6 | -0.5764
UUCAUAUUCAACGUGAACG | ASAP2 | 0.1271
AUAUGGUCUGGGUAGCUCU | MAPK1IP1L | 0.9777
AUACUGACCAGUACUGUGC | NUP107 | -0.0284
UACUAGAGGAAUCUAAUGC | TBC1D15 | -0.04092
AGGUCUAACAGUGUAACUC | ATXN10 | -0.1518
UAAAGGCUCAGACUCGAAC | PYROXD2 | 0.8559
UAUAUCAAUGGGACGAUUG | CEMIP | 1.557
AAAGGUUCUUGCGUUGUUG | BBX | -0.4694
UCUGGUACCUUGUCCAUUC | ATP12A | 0.2815
AUUGUAAAGCUUGCUGACC | TXLNGY | 1.721
UUUCUUGUGCUGCAUACGG | SOX10 | 0.9563
UAACAGUUAAGUAAGUUCA | LOC653698 | 0.1514
UCUGGAUCACGUGUGCAUG | ZDHHC11 | -0.1452
UCUUGUAAUUCCCUGGAGG | FGF1 | 0.1936
UAAUAUUCCAGGUAGAAUC | THEG | 0.5474
AAAGCGAUCCAGAUGGUCC | C17orf51 | -0.6325
UGCGCUUUUCAACUCGGUC | HIST1H2AJ | 1.124
UCAUGGACUGGACUGGUAC | CDKN2D | -0.2048
UCUCAGACCACGUAGAUUA | ZCCHC3 | -0.4934
UCUCUGAUCUGUUUAAUCC | PDSS2 | 0.3287
UCUGAGUUUCCAGUGGUGC | ATXN1L | -0.3955
AACUCAUCAAUGUAGAUCU | CLASRP | -0.2203
AGAGUUCUUUGAUCCAUUG | HCCAT5 | -0.6195
UUGAUUUAAGUCGUUUCUG | GDAP1 | 0.7019
UAUGUAGAGGGCUUGAUCU | TMCO5A | -0.2137
UUGGAUUGAAAAGUCUUCG | BANK1 | -0.5002
AACUGGUCACCCAACAUCC | BCL2L15 | -1.558
AUGCAUAAAAUAUCGUCCC | AHRR | -0.8726
UUCACUCUUAGCUCUAGCC | NAB1 | -0.02017
UGAGGUAUCUGCAACCACG | SPON2 | -1.232
UGUAGUAAUCUGAGGACCU | IL17A | -0.07041
UUUGUUGCAAUUUCCUCCC | KLHDC10 | 0.02465
UGUUUUAUACUCAUCUUGG | HRC | -0.06287

Once more, the final 3:

{"sirna": "UGUAGUAAUCUGAGGACCU", "target gene": "IL17A", "seed-corrected z-score": "-0.07041"}
{"sirna": "UUUGUUGCAAUUUCCUCCC", "target gene": "KLHDC10", "seed-corrected z-score": "0.02465"}
{"sirna": "UGUUUUAUACUCAUCUUGG", "target gene": "HRC", "seed-corrected z-score": "-0.06287"}